Experimental data from paper PMC4245848, “The Aspergillus nidulans Zn(II)2Cys6 transcription factor AN5673/RhaR mediates L-rhamnose utilization and the production of α-L-rhamnosidases”.

Target: T1, His6::RhaR (1-159*) (Aspergillus nidulans (cDNA from strain AR198)) (UniProt A0A0A1I536)
T1 sequence: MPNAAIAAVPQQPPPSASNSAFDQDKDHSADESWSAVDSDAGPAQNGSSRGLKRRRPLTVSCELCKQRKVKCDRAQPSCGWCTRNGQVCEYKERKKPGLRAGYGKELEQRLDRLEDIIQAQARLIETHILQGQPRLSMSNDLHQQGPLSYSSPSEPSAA
Assay: EMSA
Conditions: 0-1.2 ug protein, 100 ng DNA; 25 mM HEPES pH 7.9, 50 mM KCl, 5 mM MgCl2, 1 mM DTT, 0.1 mM EDTA, 1 ug salmon sperm DNA, 20 ul, 4 C 30 min; 5-8% native PAGE in 0.5x TBE at 4 C, ethidium bromide; recombinant protein; protein details: N-terminal His6 (pQE-80L); probe letters rebuilt from the primers and the genome

“CTAGCATTACTTCCTTGGGACATTAGAGTCAAGCACGAAATATCTCTTGTCTGGATTGTAATAGGCCGGGACTGTTTAGCCTTGGGCAACATATACCCAAAAGGATGTATGTCTCCCATAGCGTTCTAGTGCGTTAACCCTAACTGCCTATCAACGTTCCGGTATAGAGTTCACAACTTCGCCATTGCAATCTTCGACTAATTTCTTCTTCACATTCTTTATGCATATATCGTCATACGCTATTCTGACACTCTTTTTTTTACCCCGCATTCCTCGGCGTCCGTGGTTCTCGCCGAGTAGCCGACTGCAGATCTTCTCGGGGGAAGATCGACCGACCTGGTCCTGCAGAGCTCCAAGGCTTCCTCTCAGAAAGCCGATTAGTAGAAGCGGAGTCAAAGCAGGGTCAAGACGGACAATTAGAAGCCATGAATGGCGGATCCCAGCCCATGATCGCATACTGTGATCCAAAATCGACATAACTAAGTCACTTCCCTTCGCTTGTATCTGCCCAGCCATCCAACAACTCTA (double strand) [rhaAp 528 bp]”: binds.

Protein sequences can lack the tags named with them.
